Assay: general procedure: Fmoc solid-phase peptide synthesis; Rink Amide AM resin; HBTU (HATU for PEG unit)
Conditions: whole synthesis, scale 0.25 mmol

Row | Substance | crude mass [mg]
1 | Disulfide [Cys^2-6] Thioether Cyclo[CH2CO-Lys(Chelator 1-Glutaryl)-Cys^2-Arg-Gly-Asp-Cys^6-Phe-Cys]-NH2 | 295
2 | Disulfide [Cys^2-6] Thioether Cyclo[CH2CO-Lys(Chelator 1-glutaryl)-Cys^2-Arg-Gly-Asp-Cys^6-Phe-Cys]-(PEG)3-NH2 | 322
